PubChem BioAssay AID540256 (National Center for Advancing Translational Sciences (NCATS), 2011)
Where “and” joins values, the source holds several entries; their conditions need not be identical. Identical values can stand only once. Among all 300,000 compounds or so, about 3,700 (1.2%) were called active. The shares of active, inactive and inconclusive entries below differ from those in the screen. Calls come from the whole dose curve; tested in HEK293 cells. A potency beside an inconclusive call is a rough fit, not a confirmed value.

test: qHTS for Inhibitors of binding or entry into cells for Lassa Virus; settings: Lassa virus pseudotype entry inhibition, cell reporter; series mostly up to 37.9 µM; note: nearly all actives have a fitted effect of over 50% in size
Potency is the fitted concentration of half-maximal effect.

SMILES | Potency
O=C(c1ccc(F)cc1)N1CCN(c2ccc([N+](=O)[O-])cc2-n2cccc2)CC1 | inconclusive: 12.6 µM [inhibitor, single point]
O=C(Nc1ccc(F)cc1F)c1ccc2c(O)c(S(=O)(=O)c3ccc(Cl)cc3)c(=O)[nH]c2c1 | inactive
COc1cc(NC(=O)CSc2nc3nc(C)c(Cc4ccc(C)cc4)c(C)n3n2)cc(OC)c1OC | inconclusive: 35.5 µM [inhibitor, partial curve, poor fit]
CCOc1ccc(NC(=O)CN2C(=O)COc3ccc(S(=O)(=O)NC4CCCC4)cc32)cc1 | inactive
CC(C)C(c1nnnn1C(C)(C)C)N1CCN(c2cccc(Cl)c2)CC1 (stereo not given) | inconclusive: 8.91 µM [inhibitor, partial curve]
CSc1ccccc1OCc1cc(C(=O)N(C)C(C)c2ccccn2)no1 (stereo not given) | inconclusive: 5.62 µM [activator, single point]
CC1SC(c2ccc(Cl)cc2Cl)NC1=O (stereo not given) | inconclusive: 0.231 µM [activator, single point]
CCOc1ccc(Nc2nc3cc(S(=O)(=O)N(CC)CC)ccc3o2)cc1 | inconclusive: 14.1 µM [inhibitor, single point]
CCCCN(C)CCNC(=S)Nc1ccc2nc(N3CCN(CC)CC3)cc(C)c2c1 | active: 7.08 µM
CC(C)[C@H](NC(=O)OCc1ccccc1)C(=O)OCC(=O)Nc1ccc(N2CCOCC2)cc1 | inconclusive: 1.26 µM [inhibitor, single point]
Cc1cccc(NC(c2ccc(O)cc2)c2ccc3ccc(C)nc3c2O)n1 (stereo not given) | active: 20.6 µM
Cc1ccc2c(c1)c1c3n2CCN(C(=O)CCl)C3CCC1 (stereo not given) | inconclusive: 17.8 µM [inhibitor, single point]
COc1ccc(-n2c(SCC(=O)c3c(N)n(C)c(=O)n(C)c3=O)nc3ccccc32)cc1 | inconclusive: 12.6 µM [inhibitor, single point]
O=c1cc(-c2ccc3c(c2)OCO3)oc2ccccc12 | inactive
Cc1ccc(C(=O)c2cc([N+](=O)[O-])ccc2N2CCCCC2)cc1 | inconclusive: 0.316 µM [inhibitor, full curve, poor fit]
CCOc1ccc(Oc2ccc(NC(=O)CSc3nncn3C)cc2)cc1 | inconclusive: 17.8 µM [inhibitor, partial curve, poor fit]
Cc1ccccc1Cc1c(C)nc2nc(SCC(=O)NCCc3ccc(Cl)cc3)nn2c1C | inconclusive: 7.94 µM [inhibitor, partial curve, poor fit]
CCCC(=O)Nc1ccccc1-c1nnn(CC(=O)Nc2ccc(OC)cc2)n1 | inconclusive: 6.31 µM [inhibitor, partial curve, poor fit]
Cc1cc(C)cc(C(=O)NCC(=O)N2CCN(c3cccc(Cl)c3)CC2)c1 | inconclusive: 32.6 µM [inhibitor, single point]
CC(=N[C@@H]1CCCC[C@H]1N=C(C)c1ccccc1O)c1ccccc1O | inactive

SMILES | Potency
NC(=O)c1ccc2[nH]ccc2c1 | inconclusive: 6.51 µM [activator, partial curve, poor fit]
O=C1NC(=S)N(c2cccc(Cl)c2)C12CCCCC2 | inconclusive: 6.31 µM [inhibitor, single point]
CC(=O)Nc1ccc(NC(=O)COC(=O)c2c3c(nc4ccccc24)CCN(Cc2ccccc2)C3)cc1 | inconclusive: 12.6 µM [inhibitor, partial curve, poor fit]
Cc1ccc(C)c2[nH]c(=O)c(C(c3nnnn3CCc3ccccc3)N3CCOCC3)cc12 (stereo not given) | inconclusive: 7.94 µM [inhibitor, partial curve, poor fit]
CN1CCN(C(=O)CN(c2ccccc2)S(=O)(=O)N(C)C)CC1 | inconclusive: 6.31 µM [inhibitor, single point]
COc1ccccc1NC(=O)C1CCCN1S(=O)(=O)c1ccc(Cl)cc1 (stereo not given) | inconclusive: 10 µM [inhibitor, partial curve]
CSc1ncccc1C(=O)NCCc1ccc(Cl)cc1 | inconclusive: 0.316 µM [inhibitor, full curve, poor fit]
O=C(COCc1cc(-c2ccc3c(c2)OCO3)on1)NCc1ccccc1Cl | inactive
CCn1c(Cc2ccccc2)nnc1SCc1cccc(C(=O)O)c1 | inconclusive: 13 µM [activator, partial curve, poor fit]
COC(=O)CC=C[C@@H](C)[C@H](OC)c1ccccc1Br | inactive and inconclusive: 2.81 µM [inhibitor, full curve, poor fit]
CCCCCOC(=O)C1=C(C)Nc2nnnn2C1c1ccccc1Cl (stereo not given) | inconclusive: 14.6 µM [inhibitor, single point]
Cc1c(C(=O)NC(C)C)oc2c1-c1[nH]ncc1CC2 | inconclusive: 17.8 µM [inhibitor, partial curve, poor fit]
Nc1ccccc1-[n+]1c(-c2ccccc2)cc(-c2ccccc2)cc1-c1ccccc1 | inconclusive: 35.5 µM [inhibitor, single point]
O=C(NC1CCN(Cc2ccccc2)CC1)c1ccc(Cn2c(=S)[nH]c3ccc(N4CCOCC4)cc3c2=O)cc1 | inconclusive: 7.08 µM [inhibitor, partial curve]
COC(=O)c1c(C)[nH]c(C(=O)/C=C/c2ccccc2)c1C | inactive
O=C(NCCOc1ccccc1F)c1cc(F)c(F)cc1Cl | inconclusive: 12.6 µM [inhibitor, partial curve]
CCC(C)NC(=O)c1ccc(NC(=O)C2=C(C)OCCS2)cc1 (stereo not given) | inconclusive: 3.16 µM [inhibitor, single point]
OCCCNc1cc(-c2ccccc2)nc2cc(-c3ccc(F)cc3)nn12 | inconclusive: 11.2 µM [inhibitor, single point]
COCCN(C(=O)C(C)C)c1nnc(-c2ccc(C)cc2)s1 | inactive
Cc1sc(N2CCN(S(=O)(=O)c3ccc4c(c3)NC(=O)CO4)CC2)nc1-c1ccccc1 | inconclusive: 7.08 µM [inhibitor, partial curve]
